Experimental findings from publication PMC10719266 are described below.

Sequences of proteins named here, by UniProt entry; tags and fusion partners are left off.
UniProt P19474: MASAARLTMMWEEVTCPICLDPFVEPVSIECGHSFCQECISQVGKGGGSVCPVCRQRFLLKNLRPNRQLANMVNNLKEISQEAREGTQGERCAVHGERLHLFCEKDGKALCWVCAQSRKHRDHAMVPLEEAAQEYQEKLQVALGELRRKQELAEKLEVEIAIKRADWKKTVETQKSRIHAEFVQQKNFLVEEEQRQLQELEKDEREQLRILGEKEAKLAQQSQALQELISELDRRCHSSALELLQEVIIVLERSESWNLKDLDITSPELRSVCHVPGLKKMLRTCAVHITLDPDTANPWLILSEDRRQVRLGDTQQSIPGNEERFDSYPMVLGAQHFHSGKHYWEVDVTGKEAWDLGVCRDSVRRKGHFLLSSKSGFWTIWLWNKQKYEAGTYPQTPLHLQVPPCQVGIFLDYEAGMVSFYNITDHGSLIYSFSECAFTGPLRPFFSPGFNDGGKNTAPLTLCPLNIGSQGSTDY

Results are given in words; binding and its absence hold for the method and conditions named. Binding seen in cells or lysates may run through a third protein. Some results given as binding are weak or reduced against the parent protein; the word gives no strength. Tags and fused reporters may be left off the sequences shown.

This test addresses T1, Flag-tagged FOXD1 (human) (UniProt Q16676).
T1 sequence: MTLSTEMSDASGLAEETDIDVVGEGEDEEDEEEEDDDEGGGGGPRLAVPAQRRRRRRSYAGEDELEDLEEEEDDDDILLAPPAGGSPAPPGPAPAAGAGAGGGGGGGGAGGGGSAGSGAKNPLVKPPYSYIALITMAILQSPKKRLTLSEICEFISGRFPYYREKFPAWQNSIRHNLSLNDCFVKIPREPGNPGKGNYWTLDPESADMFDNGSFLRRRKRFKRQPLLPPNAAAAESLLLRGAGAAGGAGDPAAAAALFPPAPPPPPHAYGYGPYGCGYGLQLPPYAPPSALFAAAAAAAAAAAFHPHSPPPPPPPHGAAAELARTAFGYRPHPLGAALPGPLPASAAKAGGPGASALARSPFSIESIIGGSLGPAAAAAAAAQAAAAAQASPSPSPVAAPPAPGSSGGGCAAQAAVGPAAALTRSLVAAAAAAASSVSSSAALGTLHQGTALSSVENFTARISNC
The experiment in a line: co-IP; HEK293T cells transfected with differentially tagged FOXD1 and TRIM21; RIPA lysis buffer with protease inhibitor; anti-Flag magnetic beads; 3-4 washes with PBST (0.5% Tween 20, pH 7.5); immunoblotting. (In general: A western blot detects proteins with antibodies after separation by electrophoresis.)

As to TRIM21-Myc (from UniProt P19474 1-475), the binding result is recorded as “binds”.
